Measurements reported in PubChem BioAssay AID602196 (INSERM, 2012).

Aim: 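Genes whose knock-down alters cisplatin killing of lung cancer cells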
Cell system: human A549 lung cancer cells
Reagent: siRNA pair against human genes
Time to read-out: 48 h transfection before cisplatin; time from cisplatin to read-out not stated
Challenge: cisplatin at a dose killing half of control-siRNA cells; exact dose and duration not given
Read-out: 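Cisplatin cell death as a shift from the 50% death seen with control siRNA; siRNAs toxic or growth-blocking alone scored 0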
Direction: two-siRNA summed score (-2 to +2): higher = both siRNAs protect from cisplatin killing; -2 means both sensitise
Call rule: 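siRNAs harmful alone (LDH or WST-1) get 0; others get +1 for less and -1 for more cisplatin killing; genes are active when the two siRNAs give the same sign, summing to ±2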
Meaning of the calls: active = both siRNAs shift cisplatin killing the same way; inactive = no consistent shift, or siRNA harmful alone
This is one part, drawn at random, of about 23,000 reagents. 455 of them (2%) count as active. 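Active includes both protection and sensitisation; some change values fall well beyond the stated -50 to +50 range.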 Not all columns of the deposit are shown. Reagent sequences are not shown. Not given: the amount of reagent.

Target gene | two-siRNA summed score (-2 to +2) | call
GNGT2 | 0 | inactive
TVP23B | 0 | inactive
NFYA | 0 | inactive
TLE1 | 0 | inactive
ZNF2 | 1 | inactive
PUM3 | 1 | inactive
STMN2 | 0 | inactive
SYNPO2 | 0 | inactive
LOC440390 | 0 | inactive
SPSB2 | 0 | inactive
LOC391859 | 1 | inactive
PGM5 | 0 | inactive
ACTN1 | 0 | inactive
LOC441161 | 1 | inactive
PRKD1 | 1 | inactive
DEFB104A | 0 | inactive
TOR1AIP1 | 0 | inactive
CLPX | 0 | inactive
OR8B12 | 0 | inactive
GID8 | 0 | inactive
NTSR1 | 0 | inactive
PRIM1 | -2 | active
ARID5A | 0 | inactive
KIAA1975 | 1 | inactive
LOC400948 | -1 | inactive
RSPH6A | 0 | inactive
AHSA1 | 1 | inactive
ARHGEF35 | 0 | inactive
ATRX | -1 | inactive
LOC388738 | 0 | inactive
LOC256176 | 0 | inactive
MAMLD1 | 0 | inactive
CBLL2 | -1 | inactive
VHLL | 0 | inactive
LOC388375 | 0 | inactive
DDB2 | 0 | inactive
BARD1 | 1 | inactive
LINS1 | 0 | inactive
FBLIM1P2 | -1 | inactive

Copied from the listing, 5 entries:
Target gene | two-siRNA summed score (-2 to +2) | call
LOC391859 | 1 | inactive
PGM5 | 0 | inactive
ACTN1 | 0 | inactive
LOC441161 | 1 | inactive
PRKD1 | 1 | inactive
